The experiment in a line: qHTS Assay to Find Inhibitors of Chronic Active B-Cell Receptor Signaling. The following applies: ABC-DLBCL IkBa-CBG/CBR reporter, luminescence ratio (green luciferase fused to IkBa over red control in TMD8 lymphoma cells), 4 h. The method, boiled down: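 TMD8 ABC-DLBCL cells carrying doxycycline-inducible green luciferase fused to IkappaBalpha plus unfused red luciferase were exposed to compounds (up to 46 uM) for 4 hrs at 37C. Activity came from the overlap-corrected green/red luminescence ratio.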
A general note: Quantitative high-throughput screening tests each substance at several concentrations.

[1] abbreviates: measured here: CBR red luminescence, cell number.
[2] abbreviates: measured here: IkBa-CBG green luminescence.

Some of the results follow. The main result of the screen is listed elsewhere. These columns were measured beside it and carry no call. The list favours compounds with an active or inconclusive main result. The note in brackets gives the kind of curve behind each potency; many fits are weak.

Take `O=C(CNC(=O)c1ccc(Br)o1)Nc1cccc(S(=O)(=O)N2CCOCC2)c1`: the AC50 under setting [1] was 29.1 µM [falling, single point].
The same measure, in the same setting: the value for `CCOc1ccccc1N(C(=O)Nc1ccc(Cl)cc1)C1=NC(C)CS1` (configuration not stated) was 2.06 µM [rising, partial curve]; that for `Clc1ccc(C(c2nnnn2CCc2ccccc2)N2CCSCC2)cc1` (configuration not stated) was 6.51 µM [falling, full curve, poor fit]; that for `CC(C)[C@@H](N)C(=O)N/N=C/c1ccc2ncccc2c1` was 11.2 µM [falling, single point].
For `CCn1c(O)c(N=NC(=O)CNC(=O)/C=C/c2ccccc2)c2ccccc21`, the AC50 under setting [1] was 14.1 µM [rising, single point].
As for `CCC1(c2ccc(Cl)cc2)NC(=S)N(c2ccc(C)c(C)c2)N1` (configuration not stated), the AC50 under setting [1] is 10 µM [rising, partial curve, poor fit].
`O=C(C1=C[C@@H](c2csc3ccccc23)C[C@@H](OCc2ccc(CO)cc2)O1)N1CCN(Cc2ccc3c(c2)OCO3)CC1`: the AC50 under setting [1] is 31.6 µM [falling, single point].
Take `COc1ccc(C=C2c3ccccc3C(=O)c3ccccc32)c(OC)c1`: the AC50 by setting is: under setting [1], 10 µM [rising, partial curve]; under setting [2], 8.91 µM [falling, partial curve].
`Nc1nonc1-c1nc2ccccc2[nH]1`: under setting [1], the concentration at half-maximal activity (AC50) is 29.1 µM [falling, single point].
On to `COc1ccccc1Nc1ccc(NS(=O)(=O)c2ccc(C(C)=O)cc2)cc1`, for which the AC50 under setting [1] is 10 µM [falling, single point].
With `CCCn1c(=O)c(C(=O)NC(C)c2ccccc2)c(O)c2ccccc21` (configuration not stated), under setting [1], the AC50 was 3.16 µM [rising, full curve, poor fit].
Consider `Cc1onc(-c2ccc(Cl)cc2Cl)c1-c1csc(COc2ccccc2)n1`, for which, under setting [1], the AC50 was 0.708 µM [falling, partial curve, poor fit].
As to `COc1ccccc1Nc1nnc(SCC(=O)c2c(N)n(C3CC3)c(=O)[nH]c2=O)s1`, the AC50 under setting [1] was 1.16 µM [falling, partial curve, poor fit].
Still for that read-out and setting: for `O=C(Cn1nnc(-c2ccccc2)n1)NCc1ccc2c(c1)OCO2` the value was 8.91 µM [falling, partial curve, poor fit]; for `Cc1ccc(C(=O)Nc2nnc(-c3ccco3)o2)cc1`, 16.4 µM [falling, partial curve]; for `CN1CCN(NC(=S)Nc2ccc(Oc3ccccc3)cc2)CC1`, 35.5 µM [falling, single point].
With `COc1ccc(CCN2CC(C(=O)Nc3ccccc3F)CC2=O)cc1OC` (configuration not stated), the AC50 under setting [1] is 0.164 µM [rising, full curve, poor fit].
Still for that read-out and setting: the value for `O=C(Nc1nc(-c2ccccn2)cs1)c1ccc(S(=O)(=O)N2CCCCC2)cc1` was 35.5 µM [falling, single point]; that for `N=c1c2c(n(Cc3ccc(Br)cc3)c3c1CCC3)CCCC2` was 10.3 µM [falling, partial curve, poor fit].
Take `Cc1ccc(/C=C2\SC(=S)N(CCCC(=O)Nc3nccs3)C2=O)cc1`: under setting [1], the AC50 is 2.31 µM [falling, full curve].
For `CCCCC(=O)N/N=C/c1ccc(Sc2cccc3cccnc23)o1`, the AC50 is, setting by setting: under setting [1], 29.1 µM [falling, single point]; under setting [2], 14.6 µM [falling, single point].
`CCC1CCCCN1S(=O)(=O)c1ccc2c(c1)CCN2C(=O)C1CCC1` (configuration not stated): the AC50 under setting [1] is 6.31 µM [falling, single point].
As for `O=C(N/N=C/c1ccccn1)c1cc([N+](=O)[O-])cc([N+](=O)[O-])c1`, under setting [2], the AC50 was 10 µM [falling, partial curve, poor fit].
Regarding `Cc1onc(-c2ccccc2Cl)c1C(=O)NC(=S)NCC(=O)c1ccccc1`, the AC50 under setting [1] was 3.55 µM [rising, full curve].
The same measure, in the same setting: the value for `COc1cccc(/C=N/n2c(C)nc3ccccc3c2=O)c1O` was 8.91 µM [falling, partial curve]; that for `CNc1c(C(=O)O)ccc2c1C(=O)c1ccccc1C2=O` was 1.3 µM [rising, full curve]; that for `CCOC(=O)N1CCN(S(=O)(=O)c2ccc(C(=O)N(CCCN(C)C)c3nc4c(F)cc(F)cc4s3)cc2)CC1` was 0.651 µM [rising, single point].
For `O=C(c1ccccc1)c1ccccc1C(=O)c1ccccc1`, the AC50 under setting [1] is 10 µM [rising, single point].
As to `CCn1cc(CN2CCCC(C(=O)Nc3cccc(-c4cc5ccccc5[nH]4)c3)C2)c(C)n1` (configuration not stated), the AC50 under setting [1] was 28.2 µM [falling, single point].
In the case of `Cn1ncc(Br)c1NC(=O)Nc1ccc(Cl)cc1`, under setting [1], the AC50 is 3.55 µM [rising, single point].
The same measure, in the same setting: for `Cc1cc(C)nc(SCCC(=O)Nc2ccccc2C)n1` the value was 0.112 µM [falling, full curve, poor fit].
For the compound `COc1cc(/C=N/NS(=O)(=O)c2ccccc2)c(OC)c(OC)c1`, the concentration at half-maximal activity (AC50) under setting [1] is 0.631 µM [falling, full curve, poor fit].
For the compound `O=C(CSc1nnc(-c2cccnc2)n1Cc1ccccc1)NCc1ccco1`, the AC50 under setting [1] was 6.31 µM [rising, single point].
Consider `COc1ccc(NC(=O)CC2C(=O)Nc3ccccc3N2CC(=O)N2CCCC2)cc1` (configuration not stated), for which the AC50 under setting [1] was 16.4 µM [rising, single point].
Consider `COc1ccc(/C=N/NC(=O)c2ccc(Br)o2)cc1Cn1cc([N+](=O)[O-])cn1`, for which the AC50 is, setting by setting: under setting [1], 29.1 µM [falling, single point]; under setting [2], 25.9 µM [rising, single point].
For `Cc1cc(NC(=O)c2ccc(NC(=O)CC(C)C)cc2)no1`, the AC50 was 32.6 µM [falling, single point] under setting [1] and 1.16 µM [rising, full curve, poor fit] under setting [2].
Consider `Cc1cc(C)cc(NC(=O)C(=S)NCc2ccccc2)c1`, for which the half-maximal activity concentration (AC50) under setting [1] is 1 µM [rising, partial curve, poor fit].
On the same count and under the same terms, the value for `COc1ccc2c(CC(=O)Nc3nc(C)cs3)coc2c1` was 12.6 µM [falling, partial curve, poor fit].
Take `Cc1ccc2c(c1)N(CCC(=O)NCCN1CCOCC1)C(=O)CO2`: the AC50 under setting [1] is 6.31 µM [rising, single point].
`Cc1onc(-c2ccccc2)c1C(=O)OCC(=O)Nc1cc(S(=O)(=O)N2CCOCC2)ccc1Cl`: the AC50 under setting [1] is 12.6 µM [falling, partial curve, poor fit].
For the compound `CCOC(=O)c1sc(/N=C/c2ccc(O)cc2O)cc1C`, under setting [1], the AC50 is 20.6 µM [falling, partial curve].
Still for that read-out and setting: the value for `Nc1ccc2c(c1)CC(=O)c1ccccc1S2` was 20.6 µM [falling, partial curve, poor fit]; that for `CN1CCC(=NNC(=O)CN(c2ccc([N+](=O)[O-])cc2)S(=O)(=O)c2ccccc2)CC1` was 10 µM [falling, partial curve, poor fit].
Regarding `Cc1ccc(NC(=S)N2CCCC(c3ccccc3)=N2)cc1`, under setting [1], the AC50 was 2.24 µM [falling, partial curve, poor fit].
`CC1CC(C)CN(Cc2nc(N)nc(Nc3ccc4ccccc4c3)n2)C1` (configuration not stated): the AC50 under setting [1] is 1.84 µM [rising, partial curve, poor fit].
On the same count and under the same terms, the value for `COc1ccc(NC(=O)CN(C)C(=O)c2ccc(N3CCCCC3)c([N+](=O)[O-])c2)cc1` was 32.6 µM [falling, single point].
Consider `Cc1ccc(C(=O)Nc2ccc3nccnc3c2)cc1`, for which, under setting [1], the AC50 is 11.2 µM [falling, partial curve].
For the compound `CC1(C)CC2CC(C)(CN2c2ncnc3ccc(Br)cc23)C1` (configuration not stated), the AC50 under setting [1] was 20.6 µM [falling, single point].
As for `CC(C)c1ccc(-c2cc(C(=O)NN3CCN(C)CC3)c3ccccc3n2)cc1`, the AC50 under setting [1] is 25.9 µM [falling, single point].
For `NC(=O)C1CCN(C(=O)CSc2nc3ccccc3[nH]2)CC1`, under setting [1], the AC50 is 29.1 µM [falling, single point].
Consider `N#Cc1c(N)n(-c2ccc(C(=O)O)cc2)c2nc3ccccc3nc12`, for which the AC50 under setting [1] is 8.91 µM [falling, partial curve].
As to `O=C(CCC(=O)Nc1cccc([N+](=O)[O-])c1)N/N=C/c1cccs1`, the AC50 under setting [1] was 0.501 µM [rising, single point].
Consider `COc1ccc(CC(=O)OCC(=O)NC(=O)Nc2ccccc2F)cc1`, for which, under setting [1], the AC50 is 0.82 µM [rising, partial curve, poor fit].
On the same count and under the same terms, the value for `O=C(CNC(=O)c1cccs1)NCCN1CCN(c2ccccc2F)CC1` was 3.66 µM [rising, full curve, poor fit]; that for `CSC1=N/C(=C\c2cccnc2)C(=O)N1c1ccccc1` was 16.4 µM [falling, partial curve].
For `C/C(Cl)=C/Cn1c(SC(C)C)nc2c1c(=O)[nH]c(=O)n2C`, the concentration at half-maximal activity (AC50) under setting [1] is 14.6 µM [rising, partial curve, poor fit].
On to `CCCn1c(N)c(C(=O)CSc2nnc(C3CC3)n2C2CC2)c(=O)[nH]c1=O`, for which the AC50 under setting [1] was 23.1 µM [rising, partial curve, poor fit].
Still for that read-out and setting: for `Cc1ccc(C)c(-c2cc(C(=O)Nc3nccs3)c3ccccc3n2)c1` the value was 3.55 µM [falling, full curve]; for `COc1cccc(/C=N\NC(C)=O)c1OC/C=C/c1ccccc1`, 3.16 µM [rising, partial curve, poor fit]; for `CSc1ccc(NC(=O)/C=C/C(=O)O)cc1`, 12.6 µM [rising, single point].
With `COc1cc2c(cc1OC)CN(CCC(=O)c1ccc(Br)cc1)CC2`, the AC50 under setting [1] is 22.4 µM [falling, single point].
Same read-out and setting: for `COc1cccc(-c2cc(C(=O)NCC3CCCO3)c3ccccc3n2)c1` (configuration not stated) the value was 4.11 µM [rising, partial curve, poor fit]; for `COc1ccc(NC(=O)Cn2nnc(C(=O)Nc3ccccc3C)c2N)cc1`, 35.5 µM [falling, single point].

Usually AC50 stands for the concentration giving half of the maximal activity seen.
